Results are given in words; binding and its absence hold for the method and conditions named. In cells and extracts the contact can be indirect. A result given as binding can be weak or reduced; the word gives no strength.
Molecular target: GST-Rhotekin (residues 7-89) (UniProt Q8C6B2)
Experiment: pull-down; only the target purified

The chains behind the UniProt entries cited, without tags or fusion partners. Where a name states a change or a piece, a line headed by the entry shows the natural chain unless it says otherwise.
UniProt Q8C6B2: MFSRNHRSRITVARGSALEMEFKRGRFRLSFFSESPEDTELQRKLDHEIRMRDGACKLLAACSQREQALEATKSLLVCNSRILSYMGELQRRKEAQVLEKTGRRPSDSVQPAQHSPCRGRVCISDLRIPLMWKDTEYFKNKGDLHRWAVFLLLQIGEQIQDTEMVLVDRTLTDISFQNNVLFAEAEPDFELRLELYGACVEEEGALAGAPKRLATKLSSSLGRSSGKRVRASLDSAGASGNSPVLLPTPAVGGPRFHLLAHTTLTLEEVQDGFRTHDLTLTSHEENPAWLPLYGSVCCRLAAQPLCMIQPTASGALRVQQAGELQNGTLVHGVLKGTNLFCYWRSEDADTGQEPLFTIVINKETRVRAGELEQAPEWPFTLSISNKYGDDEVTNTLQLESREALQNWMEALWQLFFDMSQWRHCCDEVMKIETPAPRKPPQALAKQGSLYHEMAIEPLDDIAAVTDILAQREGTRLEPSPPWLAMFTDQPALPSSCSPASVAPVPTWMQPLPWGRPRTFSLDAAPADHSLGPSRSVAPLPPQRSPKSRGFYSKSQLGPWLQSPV
UniProt P08134: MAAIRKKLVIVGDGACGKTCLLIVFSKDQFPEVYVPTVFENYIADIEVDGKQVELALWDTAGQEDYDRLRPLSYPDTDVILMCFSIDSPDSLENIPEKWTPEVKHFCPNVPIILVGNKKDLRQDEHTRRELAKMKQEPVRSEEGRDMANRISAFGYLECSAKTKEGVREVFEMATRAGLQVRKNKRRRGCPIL
UniProt P61586: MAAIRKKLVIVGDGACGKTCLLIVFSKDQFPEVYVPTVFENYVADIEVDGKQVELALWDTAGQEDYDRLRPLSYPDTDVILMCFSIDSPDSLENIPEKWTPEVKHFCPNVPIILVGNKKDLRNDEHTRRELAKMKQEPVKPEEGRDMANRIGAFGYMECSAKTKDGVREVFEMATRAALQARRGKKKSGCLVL

Substance	binding
RhoC from HeLa cell lysates (from UniProt P08134 1-193)	binds
RhoA from HeLa cell lysates (from UniProt P61586 1-193)	binds
